Source: the supplement of paper PMC5949888
Most values lie at the floor of the assay. Slopes are relative: functional sequences can read slightly below zero.

Tested on: Saccharomyces cerevisiae PS128 hsf1 delta, HSF1(1-493) fusion
Assay: growth estimate (transactivation domain function in HSF1 fusion, heat-shock survival) (a.u. (slope of normalised read count over time)); higher = stronger growth at 37°C, i.e. more transactivation activity
Conditions: library: random library

Substance | growth estimate
ESRRVD | < -0.25
VGLPNPISVHSLLNDMALSA | < -0.25
YSY | < -0.25
GLVSRPRGANSYTSSRGYLH | -0.231
HITSHAVRLRR | < -0.25
SVPVAWVRSRMRLKGGPDLG | < -0.25
PSCMDLVGGLARLANCHSAT | < -0.25
RDVVDLVTTSTGRISRVSDW | < -0.25
RPGRSRIILGTIDY | < -0.25
RILCIVWGVCVGSDNFRQD | < -0.25
VLLGGLIPREAKEDEILSEK | < -0.25
RLQ | < -0.25
IQLLANPYQRECGSLGETLR | < -0.25
PGQDMVKFRLLPCSYVLCRR | < -0.25
MSPY | < -0.25
PRSIFVIH | < -0.25
HRPTIMLMNIH | < -0.25
GVQSINRSGRGRPVSEAGSA | < -0.25
RVRKRVRCMGRGCAYLRFAS | < -0.25
TLHRGCTIMSRGY | < -0.25
RGSGPARQ | < -0.25
PGSRGGPYELQHRLWQSSRF | < -0.25
GTSGSHHA | < -0.25

Retrieved one by one from the entries so far (7):
Substance | growth estimate
ESRRVD | < -0.25
VGLPNPISVHSLLNDMALSA | < -0.25
RILCIVWGVCVGSDNFRQD | < -0.25
PRSIFVIH | < -0.25
IQLLANPYQRECGSLGETLR | < -0.25
PGQDMVKFRLLPCSYVLCRR | < -0.25
RDVVDLVTTSTGRISRVSDW | < -0.25

Remaining list, next part

Substance | growth estimate
HGLPASQDITS | < -0.25
GAVHLVRYPSLSPTDNSDSR | < -0.25
RQI | < -0.25
RYQMEWDADSDDARTYSDSD | < -0.25
AVYRAG | < -0.25
YELCRLFARNSDRHECHWRF | < -0.25
TQLQRCLATYLITGISESSL | < -0.25
SWKLPRTLGWG | < -0.25
APFGDGCVVLTFPGTACTRP | < -0.25
ITRGVHKNPGVPKVRMTLAH | < -0.25
LALRANSCHGVQDGEYRPLC | < -0.25
SGWYLTERRGLV | < -0.25
HGDYTILPADQQRN | < -0.25
AFMCYLKSLGFPLR | < -0.25
PRKSSRWSPRWLSPNA | < -0.25
GQLNSLYGLSTLLSTRFGAI | < -0.25
CFLRSGGNGV | < -0.25
NPVGKALRKMSRIARLARNR | < -0.25
VAVDRMESDFTEDVGT | < -0.25
YLRSLCPVTEGSEKG | < -0.25
GRNHIPIGERQFSLCRITPE | < -0.25
DFTRALMMSRPRHRWAGVVT | < -0.25
HRGCTRAWTPQSLKRSRLLL | < -0.25

Substance | growth estimate
GEKTKLIAKP | < -0.25
RGFGIR | < -0.25
RDRCGSRQAMLSSYWGQHVP | < -0.25
LRTQLSRRPLVPVFLRRWFH | < -0.25
NPRIETRGSQFISRPSPHFR | < -0.25
TRVHCNTGRINNISIKARML | < -0.25
INPSVTRLILWCLQHVGT | < -0.25
GVKMT | -0.246
CNKLPDPVHSYIPVYGASPL | < -0.25
LERLVLLEGHAP | < -0.25
VRVHVAFERVSATSSATGEY | < -0.25
VPGKCGPKT | < -0.25
LRVWNYCPDRPAKRY | < -0.25
QPRLGHNASGNVKSLQAQPA | < -0.25
RGRLETPQ | < -0.25
PPDWATAT | < -0.25
SDTTGM | < -0.25
FRRVSITVRFGWSRR | < -0.25
LQLRIIITGLGVTGTP | < -0.25
NGPLIRLRRLQNGYSCLVKC | < -0.25
ESENMPLASFWLWYFPRVPY | < -0.25
QTRFVLMRPIDLGRVIFEA | -0.231
QMSTRPTHGAGYNIHDYGCP | < -0.25

Substance | growth estimate
RMDVNDRHSRPRRIGYSK | < -0.25
HSWGIYVWVLHCTESR | < -0.25
LGFTIIRIFRSTSVGLRRDA | < -0.25
GSNGGGYPSSPDRGAQVTHR | < -0.25
TVSVTGYISGQSLDQV | < -0.25
LGLRCGKTDNEFQCYYGDFR | < -0.25
VLGFLS | < -0.25
RRCRQSYHGACSSITRGYQS | < -0.25
CVGVYGGLAVGNRLQRRPLG | < -0.25
LRCVFSENRDR | < -0.25
LILQQPTVILISAFGLVRYH | < -0.25
KIATRSGALRPFPRARQVSA | < -0.25
SFESDGGCLSVSPRRCLASS | < -0.25
GHVWTTAYESATI | -0.153
FNNEFIAF | -0.0684
LKGSWAPSLD | -0.0394
NGIWGAVRNEVVV | < -0.25
LDRGCVDISV | < -0.25
IMVFLVSQ | < -0.25
VLKVFSDSVKVKIKLNRLIA | < -0.25
GAKVDH | < -0.25
QGEFSGILRPEGGDTRAETS | < -0.25
SHAGH | < -0.25

Substance | growth estimate
VREYCLTCTVRYNKRTLVRG | < -0.25
HDQKMASSRSRIETADQIQD | < -0.25
IGGEPSIQSSKPT | < -0.25
KRGLRALLESASPFRC | < -0.25
ASRNVKVRGNM | < -0.25
PCVRGNCSPLKRMTTLSV | -0.246
PNAVVFFALQFRVDRFSHLE | < -0.25
ISQRA | < -0.25
HERHLGGEEKYLITTNLLS | < -0.25
THHHVR | < -0.25
SRLIIRRDYQSALT | < -0.25
VLAETEWAESESNLQKADEG | < -0.25
VDTGEWHAFQEVSVFQPPGW | -0.153
RVQGPGAVSNVWHAG | < -0.25
KLVCIFVCSWYVWMGIQAVL | < -0.25
RNTVVGVLLSVQVNPPELLL | < -0.25
VMLEGSWNLAFAPLLSPSLC | < -0.25
KNLIDRQFPPKGRAWGAI | < -0.25
RDLD | < -0.25
RAVFRGIAVSTRMRSHLWTI | < -0.25
PTP | < -0.25
DPRGYSCAYIFTSKRKMLYQ | < -0.25
SEERGRALQIAHGAIYTHKT | < -0.25

A different layout for part of the listing above:
Substance,growth estimate
MSPY,< -0.25
PRSIFVIH,< -0.25

Later entries.

Substance | growth estimate
NVLLRCARTSVYLYNTLLPI | < -0.25
PCTSQLVCDSDYRLNAS | < -0.25
FAASSGQDEGVITRHGL | < -0.25
PNCGFRRRGFLRSQWRRSYD | < -0.25
TTASLPPGCGVCIS | < -0.25
GAENGQGRLWCFAFGVRIEL | < -0.25
QGMPLLAGHNFSSNSSVGSP | -0.246
QPTTCQKRS | < -0.25
NSYVRGECTWVIVRCANNGN | < -0.25
DCGRRKRKLECAGPSELRSY | < -0.25
CYNA | -0.243
LGFRLRSVVRVRKLPRQGCQ | < -0.25
ESPGK | < -0.25
ICRSLDRGYAFPKV | < -0.25
VRI | < -0.25
SHDTL | < -0.25
LKIMEAFDVCFFQLVWDQGR | < -0.25
PLLTIS | < -0.25
REVLRRLAGGSVESWLQECS | < -0.25
ADGDTFYVETSVSLPVHNRT | < -0.25
VNSLR | < -0.25
HCPGLVCINALSDNGYDLRP | < -0.25
TQSRGVGPPHHRLV | -0.234

Substance | growth estimate
AASGTRVSYGGVASPN | < -0.25
SPSALVRISYRGGPMTHCPP | < -0.25
KLLYCRRPWRTACVALVGWL | < -0.25
QLHLSPSTMGT | < -0.25
LAYTNADQRHLYCEQFREEG | < -0.25
NVNSAQGILRGLLVSRQFRI | < -0.25
GAVAREPFD | < -0.25
GSIVGGRLGPNV | < -0.25
VYPSVSLVVTSRLTSERSVY | < -0.25
GCSRHFFLGCGPVGFKVVEV | < -0.25
GTICGLTTIFLAETRGLSCV | < -0.25
NLYGDGSAGTSRPH | < -0.25
SAQGK | < -0.25
GWLLRGRKIQTD | < -0.25
YQAKARAAR | < -0.25
LYSVIPVNPRAGN | < -0.25
IGVVGIV | < -0.25
PGSHRSPRDLSPVMGCVRPV | < -0.25
